Source: patent US20140256639A1, “PEPTOID NEUTRALIZING AGENTS” (The Regents of the University of California, priority 2013, published 2014)

Test: Isothermal titration calorimetry (ITC) of peptoid binding to heparin
Settings: for N: Table 4, stoichiometry; for N (stoichiometry): Table 3, obtained by fitting the titration curves

## H-[N(Cad)-N(Bu)-N(Spe)]3-NH2 [s9merCad]
  N: 21.9 ± 0.3^

## H-[N(Cad)G-N(Bu)-N(Spe)]3-NH2 [s9merCadG]
Table 4
  ΔH: −283.5 ± 27^ cal/mole

## H-[N(Lys)-N(Bu)-N(Spe)]3-NH2 [s9merLys]
Table 4, calculated from binding constant and ΔH
  TΔS: 10,000 ± 54^ cal/mole

## H-[N(Orn)-N(All)-N(Spe)]3-NH2 [s9merAll]
  N: 19.3 ± 2.4^

## H-[N(Orn)-N(Bu)-N(Rpe)]4-NH2 [r12mer]
  N (stoichiometry): 16.26

## H-[N(Orn)-N(Bu)-N(Spe)]4-NH2 [s12merG]
  N: 19.7 ± 5.7^

## H-[N(Orn)-N(Bu)-N(Spe)]4-NH2 [s12mer]
  N (stoichiometry): 19.48
  N: 19.5 ± 2.7^

## H-[N(Orn)-N(Orn)-N(Spe)]4-NH2 [s9merOrnOrn]
In words
  enthalpy of reaction (sign): exothermic
